This is an account of results in paper PMC8192922.

By UniProt entry, the sequences of proteins in these tests, tags left out. Where a name states a change or a piece, a line headed by the entry shows the natural chain unless it says otherwise.
UniProt Q15554: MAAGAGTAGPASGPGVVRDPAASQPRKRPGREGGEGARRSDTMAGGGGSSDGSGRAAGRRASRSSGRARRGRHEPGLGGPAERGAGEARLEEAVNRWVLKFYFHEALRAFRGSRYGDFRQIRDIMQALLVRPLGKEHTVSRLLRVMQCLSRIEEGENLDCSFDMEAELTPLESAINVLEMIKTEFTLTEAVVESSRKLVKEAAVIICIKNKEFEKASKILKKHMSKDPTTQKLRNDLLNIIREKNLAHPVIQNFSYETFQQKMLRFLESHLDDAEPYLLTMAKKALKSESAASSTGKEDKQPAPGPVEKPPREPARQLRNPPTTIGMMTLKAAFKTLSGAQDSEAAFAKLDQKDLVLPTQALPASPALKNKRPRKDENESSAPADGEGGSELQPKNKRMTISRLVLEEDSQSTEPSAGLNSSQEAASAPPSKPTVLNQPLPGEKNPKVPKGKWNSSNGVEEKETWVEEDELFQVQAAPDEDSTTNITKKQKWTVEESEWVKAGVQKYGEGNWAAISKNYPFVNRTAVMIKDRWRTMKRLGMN
UniProt P35637: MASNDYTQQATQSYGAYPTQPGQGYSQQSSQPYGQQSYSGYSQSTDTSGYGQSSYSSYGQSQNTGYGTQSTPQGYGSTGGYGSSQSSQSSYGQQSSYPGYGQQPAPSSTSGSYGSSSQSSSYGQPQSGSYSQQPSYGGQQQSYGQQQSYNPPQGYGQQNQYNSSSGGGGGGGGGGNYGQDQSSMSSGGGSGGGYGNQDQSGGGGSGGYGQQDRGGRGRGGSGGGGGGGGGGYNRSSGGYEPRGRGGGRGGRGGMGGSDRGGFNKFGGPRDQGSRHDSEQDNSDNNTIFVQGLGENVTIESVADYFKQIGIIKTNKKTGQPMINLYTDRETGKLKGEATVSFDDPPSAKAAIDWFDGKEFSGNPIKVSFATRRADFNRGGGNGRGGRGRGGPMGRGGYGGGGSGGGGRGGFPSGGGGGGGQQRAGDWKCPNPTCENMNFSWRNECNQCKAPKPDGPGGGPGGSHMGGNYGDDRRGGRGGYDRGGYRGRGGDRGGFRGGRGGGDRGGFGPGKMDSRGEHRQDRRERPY
UniProt Q99729: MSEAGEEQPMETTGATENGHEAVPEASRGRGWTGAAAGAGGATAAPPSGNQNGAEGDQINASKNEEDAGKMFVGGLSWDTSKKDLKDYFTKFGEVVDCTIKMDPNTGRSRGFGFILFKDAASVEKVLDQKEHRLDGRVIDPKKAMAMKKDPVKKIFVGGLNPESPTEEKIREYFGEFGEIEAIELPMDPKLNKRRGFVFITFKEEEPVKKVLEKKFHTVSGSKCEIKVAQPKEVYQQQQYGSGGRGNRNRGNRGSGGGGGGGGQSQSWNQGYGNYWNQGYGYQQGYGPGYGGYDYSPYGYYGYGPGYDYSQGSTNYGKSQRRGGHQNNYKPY

What all share (assay): affinity purification with mass spectrometry; pulldowns of endogenous BRCA1 and TRF2 from chromatin fractions of HME cells (inducible shScramble or shBRCA1), on-bead trypsin digest, nanoLC-MS; IgG background subtracted
The target in assay [1] is BRCA1 (human (endogenous in HeLa, HME and T98G)) (UniProt P38398).
Assay [2] concerns the target TRF2 (human (endogenous in HeLa, HME and T98G)) (UniProt Q15554).
The target of assay [3] is BRCA1 (human (endogenous in HeLa, HME and T98G)), P38398. The settings on record: remark: other sources report otherwise.

Results are given in words; binding and its absence hold for the method and conditions named. Binding seen in cells or lysates may run through a third protein. These calls come from enrichment with a bait or labelling near it, and not all partners need be listed.

Consider FUS (from UniProt P35637 1-526), for which the binding entry in assay [1] and in assay [2] was “binds” throughout.
As for hnRNPAB (from UniProt Q99729 1-332), the binding result in assay [1] and in assay [2] was “binds” each time.

B1: XRN2, Q9H0D6 1-950 (protein)
chain: MGVPAFFRWLSRKYPSIIVNCVEEKPKECNGVKIPVDASKPNPNDVEFDNLYLDMNGIIHPCTHPEDKPAPKNEDEMMVAIFEYIDRLFSIVRPRRLLYMAIDGVAPRAKMNQQRSRRFRASKEGMEAAVEKQRVREEILAKGGFLPPEEIKERFDSNCITPGTEFMDNLAKCLRYYIADRLNNDPGWKNLTVILSDASAPGEGEHKIMDYIRRQRAQPNHDPNTHHCLCGADADLIMLGLATHEPNFTIIREEFKPNKPKPCGLCNQFGHEVKDCEGLPREKKGKHDELADSLPCAEGEFIFLRLNVLREYLERELTMASLPFTFDVERSIDDWVFMCFFVGNDFLPHLPSLEIRENAIDRLVNIYKNVVHKTGGYLTESGYVNLQRVQMIMLAVGEVEDSIFKKRKDDEDSFRRRQKEKRKRMKRDQPAFTPSGILTPHALGSRNSPGSQVASNPRQAAYEMRMQNNSSPSISPNTSFTSDGSPSPLGGIKRKAEDSDSEPEPEDNVRLWEAGWKQRYYKNKFDVDAADEKFRRKVVQSYVEGLCWVLRYYYQGCASWKWYYPFHYAPFASDFEGIADMPSDFEKGTKPFKPLEQLMGVFPAASGNFLPPSWRKLMSDPDSSIIDFYPEDFAIDLNGKKYAWQGVALLPFVDERRLRAALEEVYPDLTPEETRRNSLGGDVLFVGKHHPLHDFILELYQTGSTEPVEVPPELCHGIQGKFSLDEEAILPDQIVCSPVPMLRDLTQNTVVSINFKDPQFAEDYIFKAVMLPGARKPAAVLKPSDWEKSSNGRQWKPQLGFNRDRRPVHLDQAAFRTLGHVMPRGSGTGIYSNAAPPPVTYQGNLYRPLLRGQAQIPKLMSNMRPQDSWRGPPPLFQQQRFDRGVGAEPLLPWNRMLQTQNAAFQPNQYQMLAGPGGYPPRRDDRGGRQGYPREGRKYPLPPPSGRYNWN
Turning to B1, in assay [3], the binding result is “binds”.
